Test results reported in the supplement of paper PMC7666118.
The list shows a part of the results.

Amino acid sequences for entries named in this document (tags omitted). A change or cut given only in a name is not applied to a line headed by its entry.
UniProt P33897: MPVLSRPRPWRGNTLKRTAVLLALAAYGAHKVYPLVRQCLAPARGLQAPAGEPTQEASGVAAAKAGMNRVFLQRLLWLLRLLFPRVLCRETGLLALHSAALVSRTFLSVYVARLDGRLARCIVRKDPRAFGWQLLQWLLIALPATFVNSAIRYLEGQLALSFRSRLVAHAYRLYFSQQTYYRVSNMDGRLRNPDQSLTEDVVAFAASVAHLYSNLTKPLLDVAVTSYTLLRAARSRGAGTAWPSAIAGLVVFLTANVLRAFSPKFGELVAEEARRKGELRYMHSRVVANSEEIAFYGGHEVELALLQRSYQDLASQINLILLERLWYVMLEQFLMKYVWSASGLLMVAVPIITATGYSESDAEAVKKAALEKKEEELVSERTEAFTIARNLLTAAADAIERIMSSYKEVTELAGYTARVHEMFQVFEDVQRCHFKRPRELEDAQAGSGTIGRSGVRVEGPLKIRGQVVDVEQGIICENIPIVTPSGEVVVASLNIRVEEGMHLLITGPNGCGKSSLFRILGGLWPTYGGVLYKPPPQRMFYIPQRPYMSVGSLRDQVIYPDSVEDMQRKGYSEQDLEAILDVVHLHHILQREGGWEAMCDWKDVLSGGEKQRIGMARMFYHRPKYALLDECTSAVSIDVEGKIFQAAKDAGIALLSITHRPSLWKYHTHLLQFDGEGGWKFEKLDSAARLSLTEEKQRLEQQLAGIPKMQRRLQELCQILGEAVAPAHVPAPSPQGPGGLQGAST
UniProt Q9UKV3: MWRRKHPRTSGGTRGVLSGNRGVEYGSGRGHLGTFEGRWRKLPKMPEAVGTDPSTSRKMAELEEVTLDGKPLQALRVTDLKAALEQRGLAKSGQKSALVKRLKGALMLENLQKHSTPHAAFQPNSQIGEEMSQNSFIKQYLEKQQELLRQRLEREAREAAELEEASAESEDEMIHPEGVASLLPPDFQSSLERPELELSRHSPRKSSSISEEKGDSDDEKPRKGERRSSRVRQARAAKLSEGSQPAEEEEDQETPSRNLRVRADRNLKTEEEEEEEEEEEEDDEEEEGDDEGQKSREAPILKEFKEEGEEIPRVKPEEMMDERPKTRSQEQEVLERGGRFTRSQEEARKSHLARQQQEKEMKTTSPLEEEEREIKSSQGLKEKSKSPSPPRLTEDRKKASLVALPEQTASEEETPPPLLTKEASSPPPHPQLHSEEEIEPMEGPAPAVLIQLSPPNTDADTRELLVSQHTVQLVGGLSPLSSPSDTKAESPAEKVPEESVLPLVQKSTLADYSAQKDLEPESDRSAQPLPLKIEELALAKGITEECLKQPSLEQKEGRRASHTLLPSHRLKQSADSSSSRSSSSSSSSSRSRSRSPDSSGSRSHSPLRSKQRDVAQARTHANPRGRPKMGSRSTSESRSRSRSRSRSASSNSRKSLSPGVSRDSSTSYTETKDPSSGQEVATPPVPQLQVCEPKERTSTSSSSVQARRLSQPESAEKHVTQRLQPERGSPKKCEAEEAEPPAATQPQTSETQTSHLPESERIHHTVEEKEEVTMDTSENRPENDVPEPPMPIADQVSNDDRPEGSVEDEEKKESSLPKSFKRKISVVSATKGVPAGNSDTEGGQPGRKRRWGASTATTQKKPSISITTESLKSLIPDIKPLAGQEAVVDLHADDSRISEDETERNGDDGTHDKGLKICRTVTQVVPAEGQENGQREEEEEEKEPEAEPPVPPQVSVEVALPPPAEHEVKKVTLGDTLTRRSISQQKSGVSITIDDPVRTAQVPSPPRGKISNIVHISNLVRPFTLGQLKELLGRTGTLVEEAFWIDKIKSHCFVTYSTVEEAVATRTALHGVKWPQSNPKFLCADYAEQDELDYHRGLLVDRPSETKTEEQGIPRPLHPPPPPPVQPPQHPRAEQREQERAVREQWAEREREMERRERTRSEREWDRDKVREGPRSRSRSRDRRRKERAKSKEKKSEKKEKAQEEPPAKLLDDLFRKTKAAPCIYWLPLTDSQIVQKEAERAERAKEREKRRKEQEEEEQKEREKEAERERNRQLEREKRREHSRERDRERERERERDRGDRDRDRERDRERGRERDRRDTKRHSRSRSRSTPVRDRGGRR
UniProt Q99798: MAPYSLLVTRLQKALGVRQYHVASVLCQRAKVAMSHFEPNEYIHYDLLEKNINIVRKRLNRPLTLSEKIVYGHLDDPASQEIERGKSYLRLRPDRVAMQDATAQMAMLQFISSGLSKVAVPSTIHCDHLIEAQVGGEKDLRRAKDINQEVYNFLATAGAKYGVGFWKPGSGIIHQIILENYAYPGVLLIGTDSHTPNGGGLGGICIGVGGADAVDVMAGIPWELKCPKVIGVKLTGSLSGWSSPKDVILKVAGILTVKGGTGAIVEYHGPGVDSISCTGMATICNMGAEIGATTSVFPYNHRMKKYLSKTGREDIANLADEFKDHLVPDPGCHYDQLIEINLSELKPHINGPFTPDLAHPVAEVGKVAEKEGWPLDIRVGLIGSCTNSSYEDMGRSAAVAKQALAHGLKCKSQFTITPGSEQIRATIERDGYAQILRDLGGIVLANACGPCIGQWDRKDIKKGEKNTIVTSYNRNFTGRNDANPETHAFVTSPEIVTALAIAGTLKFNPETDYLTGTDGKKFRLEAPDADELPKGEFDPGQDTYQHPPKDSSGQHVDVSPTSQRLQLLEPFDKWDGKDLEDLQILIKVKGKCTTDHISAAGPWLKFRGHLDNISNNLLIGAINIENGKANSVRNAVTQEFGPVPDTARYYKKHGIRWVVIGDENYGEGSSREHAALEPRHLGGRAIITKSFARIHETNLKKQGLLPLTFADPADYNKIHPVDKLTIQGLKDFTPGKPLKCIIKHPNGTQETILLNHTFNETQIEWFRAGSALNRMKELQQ

Compound: COc1ccc(Cn2ccc3cc(C)c(C(=O)NO)cc32)cc1
Experiment: dose-dependent thermal stabilisation call (2D-TPP, DLPTP, 10% FDR) (binary (1 = stabilised)); higher = stabilised by the compound
Settings: system: HL-60 intact cells; concentration range 0.04-10 µM
Description: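 2D thermal proteome profiling in intact HL-60 cells treated with BRD-3811 (0, 0.04, 0.29, 2, 10 uM) for 90 min at 37 C, then heated 3 min at one of 12 temperatures (42-63.9 C). Soluble protein was quantified by TMT10 MS. The value is the DLPTP call of the paper: dose-dependent thermal stabilisation over all temperatures at 10% FDR (F-test of a dose-response against a flat model); one experiment, one call per tested protein.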

Row | Target | dose-dependent thermal stabilisation call
1 | ABCD1 (UniProt P33897) | inactive: 0
2 | ACIN1 (UniProt Q9UKV3) | inactive: 0
3 | ACO2 (UniProt Q99798) | inactive: 0
